According to article PMC8329711:
Results are given in words; binding and its absence hold for the method and conditions named.

Biological target: TLDc domain of human NCOA7-AS (residues 54-219), after TEV cleavage (human)
Experiment: SEC; Superdex 75 10/300 GL, buffer D (50 mM Tris-HCl pH 8, 100 mM NaCl, 5 mM beta-mercaptoethanol); protein loaded at 5 mg ml^-1; elution volume 13.4 ml; both purified

B1: TLDc domain of human NCOA7-AS (residues 54-219), after TEV cleavage (domain or fragment)
chain: GMRPHSALLENMHIEQLARRLPARVQGYPWRLAYSTLEHGTSLKTLYRKSASLDSPVLLVIKDMDNQIFGAYATHPFKFSDHYYGTGETFLYTFSPHFKVFKWSGENSYFINGDISSLELGGGGGRFGLWLDADLYHGRSNSCSTFNNDILSKKEDFIVQDLEVWAFD
binding: no binding (tested: 5 mg ml^-1 loaded)
